The assay deals with LAP-tagged mouse E2F4 (mouse) (UniProt Q8R0K9). The assay can be described thus: affinity purification with mass spectrometry; LAP (EGFP, S tag)-tagged mouse E2F4 expressed by lentivirus in RB family TKO mESCs; tandem affinity purification; slices of the gel of the eluted fraction subjected to mass spectrometry.

Chains of the proteins cited; added tags and fusions are not shown.
UniProt Q8R0K9: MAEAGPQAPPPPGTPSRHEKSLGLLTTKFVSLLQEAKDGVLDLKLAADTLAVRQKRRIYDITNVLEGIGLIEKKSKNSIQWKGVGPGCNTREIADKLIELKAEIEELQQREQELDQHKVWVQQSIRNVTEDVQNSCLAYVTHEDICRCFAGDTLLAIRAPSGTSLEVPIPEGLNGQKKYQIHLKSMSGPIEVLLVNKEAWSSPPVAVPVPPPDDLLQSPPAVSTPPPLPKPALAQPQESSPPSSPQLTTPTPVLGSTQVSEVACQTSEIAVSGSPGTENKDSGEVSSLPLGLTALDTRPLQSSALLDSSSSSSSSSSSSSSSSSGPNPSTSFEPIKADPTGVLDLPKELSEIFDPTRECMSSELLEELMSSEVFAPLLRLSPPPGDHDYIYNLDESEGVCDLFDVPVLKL
UniProt P45481: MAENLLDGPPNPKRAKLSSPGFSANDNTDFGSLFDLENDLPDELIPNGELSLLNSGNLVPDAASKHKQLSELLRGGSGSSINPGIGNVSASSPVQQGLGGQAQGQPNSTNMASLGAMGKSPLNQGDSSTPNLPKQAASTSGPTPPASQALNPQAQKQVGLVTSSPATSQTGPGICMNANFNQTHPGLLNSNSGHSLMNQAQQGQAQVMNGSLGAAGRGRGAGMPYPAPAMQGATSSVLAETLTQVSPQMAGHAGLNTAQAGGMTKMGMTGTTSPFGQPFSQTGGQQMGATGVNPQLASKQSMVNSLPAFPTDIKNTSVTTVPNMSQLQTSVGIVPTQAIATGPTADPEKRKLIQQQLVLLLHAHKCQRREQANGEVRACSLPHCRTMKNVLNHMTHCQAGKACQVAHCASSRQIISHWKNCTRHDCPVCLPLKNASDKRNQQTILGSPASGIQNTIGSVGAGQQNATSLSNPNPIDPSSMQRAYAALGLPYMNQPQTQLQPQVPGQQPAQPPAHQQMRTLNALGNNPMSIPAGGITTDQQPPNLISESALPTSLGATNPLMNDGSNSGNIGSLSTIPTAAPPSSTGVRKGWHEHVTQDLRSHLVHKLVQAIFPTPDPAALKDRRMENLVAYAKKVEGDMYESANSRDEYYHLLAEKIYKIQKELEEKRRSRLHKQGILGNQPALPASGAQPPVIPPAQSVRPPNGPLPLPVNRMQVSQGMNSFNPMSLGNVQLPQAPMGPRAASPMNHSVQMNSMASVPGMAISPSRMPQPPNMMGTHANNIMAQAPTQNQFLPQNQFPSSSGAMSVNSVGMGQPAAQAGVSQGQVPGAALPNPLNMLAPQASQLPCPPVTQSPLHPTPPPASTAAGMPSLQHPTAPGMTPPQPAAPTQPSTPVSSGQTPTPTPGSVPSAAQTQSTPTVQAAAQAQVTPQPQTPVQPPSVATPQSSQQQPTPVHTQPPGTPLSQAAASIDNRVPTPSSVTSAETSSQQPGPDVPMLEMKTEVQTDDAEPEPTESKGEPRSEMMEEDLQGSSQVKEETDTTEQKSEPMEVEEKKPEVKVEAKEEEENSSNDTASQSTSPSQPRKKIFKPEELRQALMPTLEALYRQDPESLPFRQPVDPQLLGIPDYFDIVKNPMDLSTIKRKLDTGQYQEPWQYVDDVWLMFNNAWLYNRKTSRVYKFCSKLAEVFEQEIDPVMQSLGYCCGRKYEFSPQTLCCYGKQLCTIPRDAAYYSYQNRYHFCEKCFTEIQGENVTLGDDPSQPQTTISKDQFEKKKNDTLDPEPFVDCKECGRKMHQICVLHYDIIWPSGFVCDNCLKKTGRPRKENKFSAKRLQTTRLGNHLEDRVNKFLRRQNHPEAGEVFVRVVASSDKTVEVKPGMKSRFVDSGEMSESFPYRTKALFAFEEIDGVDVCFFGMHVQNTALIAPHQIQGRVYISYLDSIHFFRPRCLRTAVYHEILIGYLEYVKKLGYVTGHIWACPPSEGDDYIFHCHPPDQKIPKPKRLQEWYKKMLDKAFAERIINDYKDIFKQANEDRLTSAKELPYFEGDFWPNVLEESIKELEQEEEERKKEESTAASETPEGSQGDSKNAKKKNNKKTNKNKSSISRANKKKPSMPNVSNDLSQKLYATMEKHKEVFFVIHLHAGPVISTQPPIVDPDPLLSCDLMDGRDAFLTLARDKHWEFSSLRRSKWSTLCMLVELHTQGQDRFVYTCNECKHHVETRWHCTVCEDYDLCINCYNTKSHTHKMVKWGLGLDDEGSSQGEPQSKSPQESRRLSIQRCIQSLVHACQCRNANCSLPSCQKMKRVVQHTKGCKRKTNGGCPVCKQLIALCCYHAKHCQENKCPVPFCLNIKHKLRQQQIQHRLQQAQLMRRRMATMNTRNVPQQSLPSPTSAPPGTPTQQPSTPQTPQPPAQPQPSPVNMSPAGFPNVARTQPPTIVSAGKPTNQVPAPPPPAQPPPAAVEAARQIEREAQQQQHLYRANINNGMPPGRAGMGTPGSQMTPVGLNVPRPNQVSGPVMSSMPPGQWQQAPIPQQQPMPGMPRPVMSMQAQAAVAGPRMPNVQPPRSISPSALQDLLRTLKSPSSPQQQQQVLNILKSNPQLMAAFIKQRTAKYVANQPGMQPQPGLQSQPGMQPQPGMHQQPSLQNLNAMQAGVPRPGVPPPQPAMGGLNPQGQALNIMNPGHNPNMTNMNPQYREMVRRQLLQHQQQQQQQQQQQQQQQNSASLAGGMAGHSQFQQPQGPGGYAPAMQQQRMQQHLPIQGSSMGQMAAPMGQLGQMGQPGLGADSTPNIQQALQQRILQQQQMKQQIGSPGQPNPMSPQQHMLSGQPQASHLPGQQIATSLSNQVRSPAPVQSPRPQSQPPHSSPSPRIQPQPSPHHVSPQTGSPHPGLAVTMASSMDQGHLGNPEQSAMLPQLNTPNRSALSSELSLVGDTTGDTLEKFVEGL
UniProt P70168: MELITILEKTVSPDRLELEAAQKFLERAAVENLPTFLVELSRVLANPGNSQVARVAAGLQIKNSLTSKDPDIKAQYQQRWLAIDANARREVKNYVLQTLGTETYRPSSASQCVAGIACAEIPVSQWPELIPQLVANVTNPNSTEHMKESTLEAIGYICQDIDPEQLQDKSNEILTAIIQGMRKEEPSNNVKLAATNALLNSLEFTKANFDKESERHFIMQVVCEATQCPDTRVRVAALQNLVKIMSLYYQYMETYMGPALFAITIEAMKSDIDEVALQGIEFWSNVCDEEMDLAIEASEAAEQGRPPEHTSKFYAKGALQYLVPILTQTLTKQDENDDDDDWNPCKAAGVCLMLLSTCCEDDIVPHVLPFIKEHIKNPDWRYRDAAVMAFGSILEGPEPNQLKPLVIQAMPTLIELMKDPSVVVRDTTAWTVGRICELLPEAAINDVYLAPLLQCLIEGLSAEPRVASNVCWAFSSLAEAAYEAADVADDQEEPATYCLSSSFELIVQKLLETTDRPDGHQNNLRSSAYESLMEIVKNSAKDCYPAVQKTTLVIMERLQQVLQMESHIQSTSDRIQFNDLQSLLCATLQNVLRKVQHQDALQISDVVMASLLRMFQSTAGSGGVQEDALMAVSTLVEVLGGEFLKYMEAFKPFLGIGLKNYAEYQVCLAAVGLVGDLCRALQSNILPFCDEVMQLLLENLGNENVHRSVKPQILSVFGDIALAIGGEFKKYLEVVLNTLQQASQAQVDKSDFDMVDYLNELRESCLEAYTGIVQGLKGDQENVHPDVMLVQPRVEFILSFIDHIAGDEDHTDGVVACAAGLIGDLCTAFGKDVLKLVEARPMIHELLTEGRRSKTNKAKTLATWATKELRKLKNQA
UniProt P60122: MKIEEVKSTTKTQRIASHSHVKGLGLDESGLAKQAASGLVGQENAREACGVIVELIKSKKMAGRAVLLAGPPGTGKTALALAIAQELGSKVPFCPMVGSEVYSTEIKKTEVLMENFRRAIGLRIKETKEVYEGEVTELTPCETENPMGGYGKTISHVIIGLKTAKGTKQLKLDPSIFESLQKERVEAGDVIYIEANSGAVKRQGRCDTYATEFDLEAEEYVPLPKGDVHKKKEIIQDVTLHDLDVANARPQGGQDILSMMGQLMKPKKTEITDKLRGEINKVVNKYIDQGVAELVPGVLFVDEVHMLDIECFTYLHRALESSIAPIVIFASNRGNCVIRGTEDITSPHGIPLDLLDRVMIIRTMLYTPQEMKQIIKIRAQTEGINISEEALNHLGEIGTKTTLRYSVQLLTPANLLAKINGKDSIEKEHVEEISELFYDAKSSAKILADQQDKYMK
UniProt Q9WTM5: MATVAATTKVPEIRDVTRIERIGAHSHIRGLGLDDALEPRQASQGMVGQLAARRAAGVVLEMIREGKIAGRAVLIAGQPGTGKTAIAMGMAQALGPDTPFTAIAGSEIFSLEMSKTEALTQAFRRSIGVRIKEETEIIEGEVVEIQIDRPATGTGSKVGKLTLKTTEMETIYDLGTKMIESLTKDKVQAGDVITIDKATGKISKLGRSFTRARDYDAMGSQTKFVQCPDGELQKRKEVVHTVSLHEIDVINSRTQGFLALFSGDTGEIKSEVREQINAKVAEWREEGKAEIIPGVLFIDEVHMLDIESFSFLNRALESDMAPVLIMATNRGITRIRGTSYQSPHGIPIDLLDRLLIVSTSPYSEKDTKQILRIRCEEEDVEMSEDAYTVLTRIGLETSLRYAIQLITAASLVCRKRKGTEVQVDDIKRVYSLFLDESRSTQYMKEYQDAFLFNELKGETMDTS

No constants are given. Whether binding was seen depends on the method and setting. Binding seen in cells or lysates may run through a third protein. A yes stands for co-enrichment or nearness to the bait. Other partners may have been found. No binding means not detected with the bait.

Consider “CBP (CREB-binding protein), endogenous (from UniProt P45481 1-2441)”, for which the binding entry is listed as “no binding”.

For KPNB1 (from UniProt P70168 1-876), the binding entry is given as “binds”.

On to Pontin (from UniProt P60122 1-456), for which the binding result was “binds”.

Reptin (from UniProt Q9WTM5 1-463): the binding result is reported as “binds”.

These data come from paper PMC6610666.
